# In patent publication US20070112061A1, “Heat- or singlet oxygen-generating agents and cancer treatment compositions comprising organic peroxide or chemiluminescent compound” (priority 2004, published 2007):
# What was measured:
# [1] = Formation of imidazole (indicates singlet oxygen generation efficiency); format: physicochemical; conditions: for Solution Yield of imidazole: reaction started with 1N KOH/MeOH
# [2] = Relative light intensity of chemiluminescence (PMA apparatus); format: physicochemical; conditions: methanol solution mixed with 1N KOH methanol 10:1; Chemical formula A defined as 1
SMILES,Solid reaction imidazole yield [1],Solution Yield of imidazole [1],Relative amount of chemiluminescence [2]
"OOC1(c2ccccc2)N=C(c2ccccc2)N=C1c1ccccc1 (stereo not drawn) [Chemical formula A, 4-Hydroperoxy-2,4,5-triphenyl-4H-isoimidazole]",45%,13%,1
"CN(C)c1ccc(C2=NC(OO)(c3ccc(F)cc3)C(c3ccc(F)cc3)=N2)cc1 (stereo not drawn) [Chemical formula B, 4,5-Bis(4-fluorophenyl)-4-hydroperoxy-2-(4-dimethylaminophenyl)-4H-isoimidazole]",˜0%,˜0%,160
"OOC1(c2ccccc2)N=C(c2ccc(O)cc2)N=C1c1ccccc1 (stereo not drawn) [Chemical formula C, 4-Hydroperoxy-2-(4-hydroxyphenyl)-4,5-diphenyl-4H-imidazole]",–,–,1.02
OOC1(c2ccccc2)N=C(c2cccc(O)c2)N=C1c1ccccc1 (stereo not drawn) [Chemical formula D],–,–,0.232
"Nc1ccc(C2=NC(OO)(c3ccccc3)C(c3ccccc3)=N2)cc1 (stereo not drawn) [Chemical formula H, 2-(4-Aminophenyl)-4-hydroperoxy-4,5-diphenyl-4H-isoimidazole]",˜0%,3%,1.6
"CC(C)(C)[Si](C)(C)OOC1(c2ccccc2)N=C(c2ccccc2)N=C1c1ccccc1 (stereo not drawn) [Chemical formula I, 4-t-Butyldimethylsilylperoxy-2,4,5-triphenyl-4H-isoimidazole]",–,–,0.58
O=[N+]([O-])c1ccc(C2=NC(OO)(c3ccccc3)C(c3ccccc3)=N2)cc1 (stereo not drawn) [Chemical formula J],50%,49%,0.60
"O=Cc1ccc(C2=NC(OO)(c3ccccc3)C(c3ccccc3)=N2)cc1 (stereo not drawn) [Chemical formula K, 2-(4-Formylphenyl)-4-hydroperoxy-4,5-diphenyl-4H-isoimidazole]",55%,58%,˜0
"Cc1cc(C)c(C2=NC(OO)(c3ccccc3)C(c3ccccc3)=N2)c(C)c1 (stereo not drawn) [Chemical formula L, 4-Hydroperoxy-2-(2′,4′,6′-trimethylphenyl)-4,5-diphenyl-4H-isoimidazole]",˜0%,˜0%,2.2
